The other results are listed elsewhere or left out. These are further read-outs of the screen, such as a control signal, another cell line or another target. No call is given for them. Most of these compounds were active or inconclusive in the main read-out, so they are no random draw. Words in brackets tell the shape of the fitted curve; partial curves, single points and poor fits give uncertain potencies.
Assay: qHTS Assay for Lipid Storage Modulators in Drosophila S3 Cells;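 for cell number change: cells counted by Cell Tracker Red CMTPX staining in the red channel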
Conditions: BODIPY lipid droplet fluorescence, 18-24 h; for cell number change: measured here: cell count max response, cells fed with added oleic acid
Summary of the method: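 Laser-scanning cytometry quantifies lipid droplet accumulation (500–530 nm total intensity; droplet/cell object ratio) in oleic acid-fed (400 uM added) Drosophila S3 cells treated with a concentration series. 20 uM Triacsin C defined 100% inhibition.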

[1] = measured here: lipid fluorescence (Fed channel) AC50, cells fed with added oleic acid
[2] = measured here: cell number channel AC50, cells fed with added oleic acid

Structure (SMILES)	cell number change [%]	AC50 [1]	AC50 [2]
CCOC(=O)N1CCN(C(=O)CCn2nc(-c3ccc(Cl)cc3)ccc2=O)CC1	-15.2	29.1 µM [falling, single point]	–
Cc1nc(CC(=O)c2c(C)cc(O)cc2O)cs1	-39.3	0.0259 µM [falling, full curve, poor fit]	29.1 µM [falling, partial curve, poor fit]
COc1ccc2c(c1)oc(=O)c1c3ccccc3[nH]c21	-6.43	–	–
C#CCOC(=O)Nc1cccn(Cc2c(Cl)cccc2Cl)c1=O	13.9	–	–
Cc1ccc(NC(=S)N(CCCN2CCOCC2)Cc2ccccn2)cc1	12	–	–
Nc1c(N(Cc2ccco2)C(=O)c2ccccc2F)c(=O)[nH]c(=O)n1Cc1ccccc1	-11.6	6.51 µM [rising, single point]	–
Cc1ccccc1OCC(=O)NC(=S)Nc1ccc(N2CCOCC2)c(Cl)c1	–	0.00461 µM [falling, full curve, poor fit]	–
COc1cc(OC)c(C2=NOC(C(=O)NCCc3ccccc3)C2)cc1Cl (stereo not given)	–	0.82 µM [rising, single point]	–
CC(C)COP(=O)(c1ccc(N(C)C)cc1)C(Nc1ccccc1)c1ccccc1 (stereo not given)	-16.4	14.6 µM [falling, single point]	–
FC(F)(F)c1cccc(CN2CCCCCC2)c1	-11.6	1.16 µM [falling, full curve]	–
C#CCOCCOCCOCCNc1nc(N2CCN(C(=O)Cn3cc(CCCCN)nn3)CC2)nc(N2CCN(C(=O)[C@H]([C@@H](C)CC)n3cc(CCCCN)nn3)CC2)n1	-13.7	–	–
Cc1ccc(NC(=O)COC(=O)[C@@H]2CCCN2C(=O)c2cccs2)cc1S(=O)(=O)N(C)C	10.6	0.58 µM [rising, full curve]	–
COc1ccccc1-c1nc(SCC(=O)N(C)c2ccccc2)c2c(=O)n(C)c(=O)n(C)c2n1	-37.4	–	0.116 µM [falling, full curve, poor fit]
CSc1ccc(/C=N/n2c(COc3ccccc3)n[nH]c2=S)cc1	–	0.58 µM [falling, single point]	–
CCc1nnc(NC(=O)Cc2cc(OC)c(OC)c(OC)c2)s1	31	20.6 µM [rising, partial curve]	2.59 µM [rising, full curve]
Oc1ccc(N=Nc2nc(-c3ccccc3)c(-c3ccccc3)[nH]2)cc1	-49.5	23.1 µM [falling, single point]	16.4 µM [falling, single point]
Cc1ccc(C)c(S(=O)(=O)N2CCCOC2CNC(=O)C(=O)NCc2cccnc2)c1 (stereo not given)	-17.1	0.0116 µM [falling, full curve]	–
COc1ccc(NC(=O)CC2C(=O)N(c3ccc(Cl)cc3)C(=S)N2NC(=O)c2cccc(F)c2)cc1 (stereo not given)	7.33	0.116 µM [rising, full curve, poor fit]	–
CCN1C(=O)CC(NCc2ccc3c(c2)OCO3)C1=O (stereo not given)	-17.2	–	–
CCOc1nc(-c2ccc(OC)cc2)ccc1-c1noc(C)n1	–	2.06 µM [rising, partial curve]	2.31 µM [rising, partial curve]

Structure (SMILES)	cell number change [%]	AC50 [1]	AC50 [2]
Cc1ccc(CNC(=O)Cn2c(=O)c3sccc3n(Cc3ccc([N+](=O)[O-])cc3)c2=O)cc1	0.151	–	–
O=c1c2ccccc2nc(SCc2cccc(F)c2)n1Cc1ccco1	115	2.06 µM [rising, partial curve]	11.6 µM [rising, partial curve]
Cc1ccc(Cc2c(C)nc3nc(SCC(=O)NCCCN4CCCCCC4)nn3c2C)cc1	72.4	29.1 µM [rising, single point]	29.1 µM [rising, single point]
O=S(=O)(c1ccc(Oc2ccc(Br)cc2F)nc1)N1CCCCC1	-23	0.651 µM [rising, full curve, poor fit]	–
CCOC(=O)c1ncn2c1[C@@H]1CCNC1C(=O)c1cc(OC)ccc1-2 (stereo not given in full)	17.2	5.8 µM [rising, full curve, poor fit]	–
COc1ccc(-c2noc(CCCC(=O)Nc3ccc(C(N)=O)cc3)n2)cc1	-14.6	0.00517 µM [falling, full curve, poor fit]	–
CC(C)(C)SCCNC(=O)/C=C/c1cccc([N+](=O)[O-])c1	-16.7	14.6 µM [rising, partial curve]	0.651 µM [rising, partial curve, poor fit]
COc1ccc(Cn2cccc(NC(=O)Nc3ccc(C#N)cc3)c2=O)cc1	-3.37	0.58 µM [falling, single point]	–
COc1ccc(NC(=O)CN2C(=O)NC(c3ccccc3)(c3ccccc3)C2=O)cc1OC	-26.3	–	–
COc1ccccc1CNC(=S)NCc1ccc(Cl)cc1	-23.8	29.1 µM [falling, partial curve, poor fit]	–
COc1cccc(N(Cc2nnc3n2CCCCC3)C(=O)Nc2ccccc2)c1	-1.1	–	–
CCN(CC)S(=O)(=O)c1ccc(OC)c(NC(=O)C2CC(=O)N(c3ccc(C)cc3)C2)c1 (stereo not given)	114	–	29.1 µM [rising, single point]
COc1ccc(CNc2ccc(-c3ccccc3OC)nn2)cc1	–	–	2.06 µM [rising, partial curve, poor fit]
CC(C)(O)C#Cc1ccc(CN2CCCC(CNC(=O)c3ccco3)C2)cc1 (stereo not given)	-21.4	–	–
COc1cc(/C=N\Nc2ccc([N+](=O)[O-])cc2)ccc1OCC(=O)Nc1ccc(C)c(C)c1	3.74	16.4 µM [falling, single point]	–
COc1ccccc1C(=O)NC(CCSC)C(=O)OC(C)C(N)=O (stereo not given)	-2.44	–	–
O=C(NCc1ccc(F)cc1)C(c1ccccc1)N(C(=O)c1csnn1)C1CCCC1 (stereo not given)	22.1	–	6.51 µM [rising, single point]
CC1CCN(C(=O)CN(C2CCCCC2)S(C)(=O)=O)CC1	-35.6	29.1 µM [falling, single point]	–
CCNC(=S)N(Cc1ccccc1)Cc1nc2ccccc2c(=O)[nH]1	8.25	–	6.51 µM [rising, single point]

Some values from the list.
CCOC(=O)c1ncn2c1[C@@H]1CCNC1C(=O)c1cc(OC)ccc1-2 (stereo not given in full) | AC50 [1]: 5.8 µM [rising, full curve, poor fit]
COc1cc(/C=N\Nc2ccc([N+](=O)[O-])cc2)ccc1OCC(=O)Nc1ccc(C)c(C)c1 | cell number change [%]: 3.74
